According to paper PMC6202324, “C1GALT1 predicts poor prognosis and is a potential therapeutic target in head and neck cancer” (Oncogene, 2018):
Results are given in words; binding and its absence hold for the method and conditions named. Binding seen in cells or lysates may run through a third protein. Some binding calls cover weakened binding; strength is not graded here.

By UniProt entry, the sequences of proteins in these tests, tags left out.
UniProt Q9NS00: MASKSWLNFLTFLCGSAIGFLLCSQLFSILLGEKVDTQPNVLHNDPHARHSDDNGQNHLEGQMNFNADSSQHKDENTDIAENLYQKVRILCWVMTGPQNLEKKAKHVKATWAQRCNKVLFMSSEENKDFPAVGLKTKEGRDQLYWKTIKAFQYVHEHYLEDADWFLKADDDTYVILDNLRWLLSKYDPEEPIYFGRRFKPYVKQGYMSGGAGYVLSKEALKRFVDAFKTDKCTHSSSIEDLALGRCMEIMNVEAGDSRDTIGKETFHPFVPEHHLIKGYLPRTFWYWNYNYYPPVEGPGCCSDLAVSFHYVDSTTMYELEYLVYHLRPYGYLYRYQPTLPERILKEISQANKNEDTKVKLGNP

Target: EGFR (endogenous, from control HNSCC cells) (human (endogenous in SAS and OEC-M1)) (UniProt P00533)
Experiment: co-IP; SAS and OEC-M1 cells transfected with C1GALT1-HA for 48 h; 500 µg lysate protein with 2 µg anti-HA or anti-EGFR antibody, 18 h, 4 °C, protein A/G agarose; blotted with anti-EGFR or anti-HA

binding: binds
Substance: C1GALT1-HA (from UniProt Q9NS00 1-363) (enzyme)
